# Reference: paper PMC8536758
# By UniProt entry, the sequences of proteins in these tests, tags left out. Where a name states a change or a piece, a line headed by the entry shows the natural chain unless it says otherwise. Chains listed by the source or under a name are the forms on record and can include a tag or linker.
# 3 × FLAG-tagged ZSWIM8 (zinc finger SWIM type containing 8), expressed in HEK293T cells (A7E2V4, form named): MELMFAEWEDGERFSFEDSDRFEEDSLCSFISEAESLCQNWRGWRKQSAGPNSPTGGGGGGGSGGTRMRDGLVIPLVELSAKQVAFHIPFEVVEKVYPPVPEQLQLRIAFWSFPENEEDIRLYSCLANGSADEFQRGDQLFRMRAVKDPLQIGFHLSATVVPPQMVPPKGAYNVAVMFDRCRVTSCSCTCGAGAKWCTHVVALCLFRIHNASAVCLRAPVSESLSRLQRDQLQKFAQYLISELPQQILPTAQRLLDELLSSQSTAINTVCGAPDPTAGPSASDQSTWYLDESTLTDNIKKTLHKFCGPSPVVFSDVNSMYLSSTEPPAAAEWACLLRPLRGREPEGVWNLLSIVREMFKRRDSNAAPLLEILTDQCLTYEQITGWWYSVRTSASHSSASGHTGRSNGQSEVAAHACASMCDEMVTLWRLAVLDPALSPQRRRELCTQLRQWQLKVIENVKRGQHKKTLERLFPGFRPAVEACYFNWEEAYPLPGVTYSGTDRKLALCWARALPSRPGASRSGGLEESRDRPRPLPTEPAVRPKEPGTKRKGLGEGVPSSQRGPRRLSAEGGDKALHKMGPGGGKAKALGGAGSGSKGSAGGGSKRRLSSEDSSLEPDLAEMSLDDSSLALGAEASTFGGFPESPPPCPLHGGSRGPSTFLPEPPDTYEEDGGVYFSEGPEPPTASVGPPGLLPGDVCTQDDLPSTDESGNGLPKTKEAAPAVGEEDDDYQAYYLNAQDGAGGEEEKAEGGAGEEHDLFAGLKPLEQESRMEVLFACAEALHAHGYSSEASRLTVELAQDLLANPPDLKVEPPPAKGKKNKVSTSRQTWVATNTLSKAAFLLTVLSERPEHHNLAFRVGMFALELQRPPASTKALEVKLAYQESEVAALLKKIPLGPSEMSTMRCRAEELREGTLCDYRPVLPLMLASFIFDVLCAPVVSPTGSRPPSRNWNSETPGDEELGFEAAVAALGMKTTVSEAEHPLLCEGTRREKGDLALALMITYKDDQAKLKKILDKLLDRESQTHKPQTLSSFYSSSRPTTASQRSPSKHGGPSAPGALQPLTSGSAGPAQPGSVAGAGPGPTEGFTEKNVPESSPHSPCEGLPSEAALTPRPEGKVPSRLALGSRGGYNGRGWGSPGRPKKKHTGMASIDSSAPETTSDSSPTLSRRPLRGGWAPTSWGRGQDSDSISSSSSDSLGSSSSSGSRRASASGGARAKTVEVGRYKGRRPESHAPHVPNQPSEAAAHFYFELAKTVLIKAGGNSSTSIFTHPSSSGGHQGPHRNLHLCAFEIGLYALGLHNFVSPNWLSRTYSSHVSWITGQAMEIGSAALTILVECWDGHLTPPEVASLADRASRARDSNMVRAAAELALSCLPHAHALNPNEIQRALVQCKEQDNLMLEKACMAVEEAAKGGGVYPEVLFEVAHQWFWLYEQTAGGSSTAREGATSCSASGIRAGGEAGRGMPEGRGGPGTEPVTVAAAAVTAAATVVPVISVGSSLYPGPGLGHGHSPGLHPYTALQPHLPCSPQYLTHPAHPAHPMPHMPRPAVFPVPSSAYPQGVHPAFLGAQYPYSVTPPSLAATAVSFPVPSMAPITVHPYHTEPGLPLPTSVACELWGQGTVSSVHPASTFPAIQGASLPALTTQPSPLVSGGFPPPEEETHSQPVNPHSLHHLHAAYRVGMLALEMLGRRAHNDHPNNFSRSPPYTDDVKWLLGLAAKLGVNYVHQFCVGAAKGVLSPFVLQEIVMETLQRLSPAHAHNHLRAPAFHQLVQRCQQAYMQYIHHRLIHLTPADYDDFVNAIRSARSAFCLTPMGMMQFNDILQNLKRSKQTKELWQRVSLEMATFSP
# These are yes or no findings as the source states them, for the method shown. In cells and extracts the contact can be indirect. Some binding calls cover weakened binding; strength is not graded here.
# B1: Cdon-Δ983-1012, which lacks amino acids 983–1012 (receptor, UniProt Q32MD9)
# chain: DLAPYFISEPLSAVQKLGRPVVLHCSAKPVTARISWLHNGKRLDRNTEQIKIHRGTLTILSLNPSLSGCYQCVANNSVGAVVSGPATVSAAALGDFDSSTMHVITAEEKNTGFIGCRVPESNPKAEVRYKIRGKWLKHSTGNYIILPSGNLQVLNVSSKDKGSYKCAAYNPVTSELKVEPTGRKLLVSRPSSNGFHILHPALSQALAVLPHSPVTLECVVSGVPASQVYWLKDGQDAVAGSNWRRLYSHLATASIDPADSGNYSCVVGNKSGDVKHVTYMVNVLEHASISKGLHDQKVSLGATVHFTCDVHGNPAPNRTWFHNAQPIHPSSRHLTEGNVLKITRVVMEDSGLYQCVADNGIGFMQSTGRLQIEQDSGWKPVIVTAPANIEVMDGDFVTLSCNATGVPVPVIHWYGRHGLITSHPSQVLRSKPRKSHLFRPGDLDLEPVYLIMSQAGSSSLSIQAVTLEHAGKYTCEATNKHGSTQSEAFLTVVPFETNTKAESVTPSEASQNDERDPQDGSESSLLNLFPVKVHPSGVELPAERNASVPDAPNILSPPQTHMPDTYNLVWRAGRDGGMPINAYFVKYRKLDDGSGAVGSWHTVRVPGSENELHLTELEPSSLYEVLMVARSAVGEGQPAMLTFRTSKEKMASSKNTQASFPPVGVPKRPVTAEASNSNFGVVLTDSSRHSGVPEAPDRPTISMASETSVYVTWIPRANGGSPITAFKVEYKRMRTSDWLVAAEDIPPSKLSVEVRSLEPGSIYKFRVIAINHYGESFRSSASRPYQVAGFPNRFSNRPITGPHIAYTEAVSDTQIMLKWTYVPSSNNNTPIQGFYIYYRPTDSDNDSDYKRDVVEGSKQWHTIGHLQPETSYDIKMQCFNEGGESEFSNVMICETKVKRVPGASDYPVKELSTPPSSSGNAGNVGPATSPARSSDMLYLIVGCVLGVMVLILMVFIALVEYTTLSGAARINGSVHGGFLSNGCSHLHHKGPSGVNGTLSGNINGGLYSAHTNSLTRACVEFEHPHHLVNSGGVYTAVPQMDPLECINCRNCRNNNRCFTKTNSPLPVVPVVASYPQGGLEMKPLNAMKVPVCPASTVPDHGQLPDDCVKDSVAPIPTQHTCCQDNISDINSDSTEDTAEFSRGDSSGHSEAEDKVFSWNPLILSPVLEDCGEKTARSPPGPPLDGLSVVLQQAQET
# B2: Cdon-ΔMC, which lacks amino acids 1074–1250 (domain or fragment, UniProt Q32MD9 25-1073)
# chain: DLAPYFISEPLSAVQKLGRPVVLHCSAKPVTARISWLHNGKRLDRNTEQIKIHRGTLTILSLNPSLSGCYQCVANNSVGAVVSGPATVSAAALGDFDSSTMHVITAEEKNTGFIGCRVPESNPKAEVRYKIRGKWLKHSTGNYIILPSGNLQVLNVSSKDKGSYKCAAYNPVTSELKVEPTGRKLLVSRPSSNGFHILHPALSQALAVLPHSPVTLECVVSGVPASQVYWLKDGQDAVAGSNWRRLYSHLATASIDPADSGNYSCVVGNKSGDVKHVTYMVNVLEHASISKGLHDQKVSLGATVHFTCDVHGNPAPNRTWFHNAQPIHPSSRHLTEGNVLKITRVVMEDSGLYQCVADNGIGFMQSTGRLQIEQDSGWKPVIVTAPANIEVMDGDFVTLSCNATGVPVPVIHWYGRHGLITSHPSQVLRSKPRKSHLFRPGDLDLEPVYLIMSQAGSSSLSIQAVTLEHAGKYTCEATNKHGSTQSEAFLTVVPFETNTKAESVTPSEASQNDERDPQDGSESSLLNLFPVKVHPSGVELPAERNASVPDAPNILSPPQTHMPDTYNLVWRAGRDGGMPINAYFVKYRKLDDGSGAVGSWHTVRVPGSENELHLTELEPSSLYEVLMVARSAVGEGQPAMLTFRTSKEKMASSKNTQASFPPVGVPKRPVTAEASNSNFGVVLTDSSRHSGVPEAPDRPTISMASETSVYVTWIPRANGGSPITAFKVEYKRMRTSDWLVAAEDIPPSKLSVEVRSLEPGSIYKFRVIAINHYGESFRSSASRPYQVAGFPNRFSNRPITGPHIAYTEAVSDTQIMLKWTYVPSSNNNTPIQGFYIYYRPTDSDNDSDYKRDVVEGSKQWHTIGHLQPETSYDIKMQCFNEGGESEFSNVMICETKVKRVPGASDYPVKELSTPPSSSGNAGNVGPATSPARSSDMLYLIVGCVLGVMVLILMVFIALCLWKSRQQSTIQKYDPPGYLYQGSEINGQMVEYTTLSGAARINGSVHGGFLSNGCSHLHHKGPSGVNGTLSGNINGGLYSAHTNSLTRACV
# B3: Cdon-Δ1013-1042, which lacks amino acids 1013–1042 (receptor, UniProt Q32MD9)
# chain: DLAPYFISEPLSAVQKLGRPVVLHCSAKPVTARISWLHNGKRLDRNTEQIKIHRGTLTILSLNPSLSGCYQCVANNSVGAVVSGPATVSAAALGDFDSSTMHVITAEEKNTGFIGCRVPESNPKAEVRYKIRGKWLKHSTGNYIILPSGNLQVLNVSSKDKGSYKCAAYNPVTSELKVEPTGRKLLVSRPSSNGFHILHPALSQALAVLPHSPVTLECVVSGVPASQVYWLKDGQDAVAGSNWRRLYSHLATASIDPADSGNYSCVVGNKSGDVKHVTYMVNVLEHASISKGLHDQKVSLGATVHFTCDVHGNPAPNRTWFHNAQPIHPSSRHLTEGNVLKITRVVMEDSGLYQCVADNGIGFMQSTGRLQIEQDSGWKPVIVTAPANIEVMDGDFVTLSCNATGVPVPVIHWYGRHGLITSHPSQVLRSKPRKSHLFRPGDLDLEPVYLIMSQAGSSSLSIQAVTLEHAGKYTCEATNKHGSTQSEAFLTVVPFETNTKAESVTPSEASQNDERDPQDGSESSLLNLFPVKVHPSGVELPAERNASVPDAPNILSPPQTHMPDTYNLVWRAGRDGGMPINAYFVKYRKLDDGSGAVGSWHTVRVPGSENELHLTELEPSSLYEVLMVARSAVGEGQPAMLTFRTSKEKMASSKNTQASFPPVGVPKRPVTAEASNSNFGVVLTDSSRHSGVPEAPDRPTISMASETSVYVTWIPRANGGSPITAFKVEYKRMRTSDWLVAAEDIPPSKLSVEVRSLEPGSIYKFRVIAINHYGESFRSSASRPYQVAGFPNRFSNRPITGPHIAYTEAVSDTQIMLKWTYVPSSNNNTPIQGFYIYYRPTDSDNDSDYKRDVVEGSKQWHTIGHLQPETSYDIKMQCFNEGGESEFSNVMICETKVKRVPGASDYPVKELSTPPSSSGNAGNVGPATSPARSSDMLYLIVGCVLGVMVLILMVFIALCLWKSRQQSTIQKYDPPGYLYQGSEINGQMKGPSGVNGTLSGNINGGLYSAHTNSLTRACVEFEHPHHLVNSGGVYTAVPQMDPLECINCRNCRNNNRCFTKTNSPLPVVPVVASYPQGGLEMKPLNAMKVPVCPASTVPDHGQLPDDCVKDSVAPIPTQHTCCQDNISDINSDSTEDTAEFSRGDSSGHSEAEDKVFSWNPLILSPVLEDCGEKTARSPPGPPLDGLSVVLQQAQET
# Biological target: 3 × FLAG-tagged ZSWIM8 (zinc finger SWIM type containing 8), expressed in HEK293T cells (human) (UniProt A7E2V4)
# Assay: co-IP; HEK293T cells co-transfected with 3 × FLAG-ZSWIM8 and non-tagged Cdon (FL or mutants), cultured 2 days; lysate (50 mM Tris-HCl pH 7.4, 150 mM NaCl, 1% Triton X-100) immunoprecipitated with anti-FLAG antibody and Protein A Sepharose at 4 °C, immunoblot with anti-Cdon-N
row,binding,Binder
1,binds,B1
2,binds,B2
3,binds,B3
